Results as given in publication PMC12152124.
No constants are given. Whether binding was seen depends on the method and setting. Binding seen in cells or lysates may run through a third protein. Some results given as binding are weak or reduced against the parent protein; the word gives no strength. Sequences can lack the tags named with a protein. Each block holds one binder with its values, some of them ahead of it.

Biological target: T1, Tda1-3HA (C-terminally 3xHA-tagged Tda1) (S. cerevisiae) (UniProt Q03533)
T1 sequence: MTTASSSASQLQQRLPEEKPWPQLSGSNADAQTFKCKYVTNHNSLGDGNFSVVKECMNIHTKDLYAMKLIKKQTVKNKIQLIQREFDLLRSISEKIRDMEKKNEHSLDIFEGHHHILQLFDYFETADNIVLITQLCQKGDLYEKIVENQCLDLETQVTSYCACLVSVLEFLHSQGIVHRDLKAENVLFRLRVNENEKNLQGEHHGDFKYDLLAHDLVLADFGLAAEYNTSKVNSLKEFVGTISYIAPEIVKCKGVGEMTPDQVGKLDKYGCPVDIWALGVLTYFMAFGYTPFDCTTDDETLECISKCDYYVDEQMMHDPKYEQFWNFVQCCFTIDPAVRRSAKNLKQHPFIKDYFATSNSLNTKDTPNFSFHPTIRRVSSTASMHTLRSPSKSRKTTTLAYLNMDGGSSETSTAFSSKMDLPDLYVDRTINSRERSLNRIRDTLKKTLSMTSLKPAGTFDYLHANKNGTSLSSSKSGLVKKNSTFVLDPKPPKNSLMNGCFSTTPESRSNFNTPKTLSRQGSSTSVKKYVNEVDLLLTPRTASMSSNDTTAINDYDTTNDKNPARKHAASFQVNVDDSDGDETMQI
Experiment: co-IP; yeast lysates (cells in YPD, or 30 min more in YP with 0.05% glucose); IP with anti-HA antibody (12CA5) and Ab-Capcher MAG2 beads, 4 °C; 40 mM Tris-HCl pH 7.5, 150 mM NaCl, 0.5% Triton X-100; immunoblot with anti-HA and anti-FLAG

binding: binds
B1: Snf1-5FLAG (enzyme, UniProt P06782 1-633)
chain: MSSNNNTNTAPANANSSHHHHHHHHHHHHHGHGGSNSTLNNPKSSLADGAHIGNYQIVKTLGEGSFGKVKLAYHTTTGQKVALKIINKKVLAKSDMQGRIEREISYLRLLRHPHIIKLYDVIKSKDEIIMVIEYAGNELFDYIVQRDKMSEQEARRFFQQIISAVEYCHRHKIVHRDLKPENLLLDEHLNVKIADFGLSNIMTDGNFLKTSCGSPNYAAPEVISGKLYAGPEVDVWSCGVILYVMLCRRLPFDDESIPVLFKNISNGVYTLPKFLSPGAAGLIKRMLIVNPLNRISIHEIMQDDWFKVDLPEYLLPPDLKPHPEEENENNDSKKDGSSPDNDEIDDNLVNILSSTMGYEKDEIYESLESSEDTPAFNEIRDAYMLIKENKSLIKDMKANKSVSDELDTFLSQSPPTFQQQSKSHQKSQVDHETAKQHARRMASAITQQRTYHQSPFMDQYKEEDSTVSILPTSLPQIHRANMLAQGSPAASKISPLVTKKSKTRWHFGIRSRSYPLDVMGEIYIALKNLGAEWAKPSEEDLWTIKLRWKYDIGNKTNTNEKIPDLMKMVIQLFQIETNNYLVDFKFDGWESSYGDDTTVSNISEDEMSTFSAYPFLHLTTKLIMELAVNSQSN

binding: binds
B2: Rim11-5FLAG (enzyme, UniProt P38615 1-370)
chain: MNIQSNNSPNLSNNIVSKQVYYAHPPPTIDPNDPVQISFPTTEVVGHGSFGVVFATVIQETNEKVAIKKVLQDKRFKNRELEIMKMLSHINIIDLKYFFYERDSQDEIYLNLILEYMPQSLYQRLRHFVHQRTPMSRLEIKYYMFQLFKSLNYLHHFANVCHRDIKPQNLLVDPETWSLKLCDFGSAKQLKPTEPNVSYICSRYYRAPELIFGATNYTNQIDIWSSGCVMAELLLGQPMFPGESGIDQLVEIIKILGTPSKQEICSMNPNYMEHKFPQIKPIPLSRVFKKEDDQTVEFLADVLKYDPLERFNALQCLCSPYFDELKLDDGKINQITTDLKLLEFDENVELGHLSPDELSSVKKKLYPKSK
